This is one part of the list. The source made no clear call on entries shown without one.
Assay: inhibitors of Trypanosoma cruzi host-cell infection, confirmation, beta-gal luminescence, NIH3T3 host cells (AID 2630)
Details: T. cruzi beta-gal in NIH3T3, GalScreen luminescence, 90 h; at 19.5 µM (top of the series)

**Q.** Which activity change, negative = inhibition does the source give for `COCc1cc(CN2CCCC(CNC(=O)c3ccc(F)cc3)C2)ccc1OC` (stereo unspecified) here?
**A.** -48.1%
